# PubChem BioAssay AID1259308, NCATS, 2017
# Assay: 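Genes whose loss raises luciferase production in HEK293 cells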 (primary screen)
# Cell system: human HEK293 embryonic kidney cells stably expressing firefly luciferase (HEK-CMV-Luc2-Hygro)
# Knock-down reagent: single siRNA against human genes, 0.8 pmol siRNA per well
# Timing: 72 h
# Measurement: 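Reporter luminescence and viable-cell signal on separate replicate plates, given as percent of non-targeting control and median/MAD z-scores, plus per-cell luciferase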
# Scale: total luciferase, z-score and total luciferase, % of control: higher = more reporter protein produced; luciferase per cell, z-score: higher = more reporter output per viable cell; viable cells, % of control: higher = more viable cells
# Hit rule: 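Active when the median/MAD z-score for overall luciferase is greater than 3; a gene was taken forward for validation with new siRNAs if at least two of its three siRNAs passed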
# Calls: active = raised luciferase; inactive = no rise
# This is one part, drawn at random, of about 59,000 reagents tested. About 1,510 of all reagents (2.6%) were called active. 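Calls use total luciferase alone and ignore viability, so some active siRNAs may act by altering cell number.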 Entries without a mark were called inactive. Reagents against one gene are numbered here.
target,siRNA no.,"total luciferase, z-score","total luciferase, % of control","luciferase per cell, z-score","viable cells, % of control"
ZNF480 (zinc finger protein 480),1,0.886,99.5,0.607,94.8
ZNF480 (zinc finger protein 480),2,-0.518,71.6,-0.376,88.3
ZNF480 (zinc finger protein 480),3,-0.284,76.2,-0.213,90.1
NIPSNAP3A (nipsnap homolog 3A),1,1.83,118,0.992,102
NIPSNAP3A (nipsnap homolog 3A),2,-0.0791,80.3,-0.243,95.7
NIPSNAP3A (nipsnap homolog 3A),3,-0.75,67,-0.383,82.8
OFCC1 (orofacial cleft 1 candidate 1 (pseudogene)),1,0.684,95.5,0.586,91.4
OFCC1 (orofacial cleft 1 candidate 1 (pseudogene)),2,-0.583,70.3,-0.151,81.7
OFCC1 (orofacial cleft 1 candidate 1 (pseudogene)),3,2.15,125,1.22,101

Reformatted: results already given
ZNF480 (zinc finger protein 480) #2 | total luciferase, z-score: -0.518; total luciferase, % of control: 71.6; luciferase per cell, z-score: -0.376; viable cells, % of control: 88.3
ZNF480 (zinc finger protein 480) #3 | total luciferase, z-score: -0.284; total luciferase, % of control: 76.2; luciferase per cell, z-score: -0.213; viable cells, % of control: 90.1

Additional results follow:
target,siRNA no.,"total luciferase, z-score","total luciferase, % of control","luciferase per cell, z-score","viable cells, % of control"
PPP3CA-DT (PPP3CA divergent transcript),1,4.67 (active),175,3.6,75.7
PPP3CA-DT (PPP3CA divergent transcript),2,0.000237,81.9,-0.0115,91.8
PPP3CA-DT (PPP3CA divergent transcript),3,-0.259,76.7,-0.466,96.9
ENTREP1 (endosomal transmembrane epsin interactor 1),1,-0.709,67.8,0.0151,75.4
ENTREP1 (endosomal transmembrane epsin interactor 1),2,0.272,87.3,0.675,81.7
ENTREP1 (endosomal transmembrane epsin interactor 1),3,1.78,117,1.89,79.7
CLGN (calmegin),1,-0.246,77,-0.532,99
CLGN (calmegin),2,0.711,96,0.464,95
CLGN (calmegin),3,-0.89,64.2,0.0776,70.3
SLC25A45,1,0.187,85.6,0.764,78.2
SLC25A45,2,2.67,135,3.42,61.3
SLC25A45,3,-0.12,79.5,-0.417,99.2
DUOX2 (dual oxidase 2),1,0.394,89.7,-0.762,123
DUOX2 (dual oxidase 2),2,-1.43,53.5,-0.566,69.3
DUOX2 (dual oxidase 2),3,-0.384,74.2,-0.144,86.2
